Laboratory results published in patent publication US20240270727A1, “NEW SUBSTITUTED PYRIDINES AS FUNGICIDE” (BASF SE, priority 2021, published 2024).
Some entries share one result that the patent states for a list of compounds. For some assays here: At least one compound was matched to its structure with a doubt left.

Assays:
Fusarium culmorum = experiment: Example 5: activity against Fusarium culmorum in the microtiterplate test; assay type: cell-based; conditions: 31 ppm, relative to active compound-free control (100%)
[1] = test system: Pyrenophora teres Qoi (FL129) resistant isolate; experiment: Example 13: activity against Pyrenophora teres Qoi (FL129) resistant isolate in the microtiterplate test; conditions: 31 ppm; Pyrenophora teres Qoi (FL129) resistant isolates; DOB media pH 7
Botrytis cinerea [2] = experiment: Example 4: activity against the grey mold Botrytis cinerea in the microtiterplate test; assay type: cell-based; conditions: 31 ppm, relative to active compound-free control (100%)
Leptosphaeria nodorum = experiment: Example 9: activity against Leptosphaeria nodorum in the microtiterplate test; conditions: 31 ppm, DOB media pH 7
Leptosphaeria maculans = experiment: Example 14: activity against Leptosphaeria maculans in the microtiterplate test; conditions: 31 ppm, DOB media pH 7
Microdochium nivale = experiment: Example 7: activity against Microdochium nivale in the microtiterplate test; conditions: 31 ppm, DOB media pH 7
Mycosphaerella fijiensis = experiment: Example 16: activity against Mycosphaerella fijiensis in the microtiterplate test; conditions: 31 ppm, DOB media pH 7
Monilinia laxa = experiment: Example 11: activity against Monilinia laxa in the microtiterplate test; conditions: 31 ppm, DOB media pH 7
Sclerotinia sclerotiorum = experiment: Example 20: preventative fungicidal control of white mold on oilseed rape caused by Sclerotinia sclerotiorum (green house); assay type: in vivo; conditions: 100 g/ha, assessed after 14 days, untreated plants 100% infected
Phytophthora infestans = assay type: cell-based; conditions: 31 ppm, DOB media pH 7
[3] = test system: Colletotrichum orbiculare; experiment: Example 8: activity against Colletotrichum orbiculare in the microtiterplate test; conditions: 31 ppm, DOB media pH 7
Venturia inaequalis = experiment: Example 3: activity against Venturia inaequalis in the microtiterplate test; assay type: cell-based; conditions: 31 ppm, relative to active compound-free control (100%)
Corynespora cassiicola = experiment: Example 17: activity against Corynespora cassiicola in the microtiterplate test; conditions: 31 ppm, DOB media pH 7
Botrytis cinerea [4] = experiment: Example 22: long lasting control of Botrytis cinerea on leaves of green pepper (green house); conditions: 100 g/ha, inoculated 7 days after treatment, assessed after 5 days, untreated plants 90% infected

Row | SMILES | growth of the pathogen (Fusarium culmorum) | growth of the pathogen [1] | growth of the pathogen (Botrytis cinerea [2]) | growth of the pathogen (Leptosphaeria nodorum) | growth of the pathogen (Leptosphaeria maculans) | growth of the pathogen (Microdochium nivale) | growth of the pathogen (Mycosphaerella fijiensis) | growth of the pathogen (Monilinia laxa) | growth of the pathogen (fungal attack assessed as % diseased leaf area) (Sclerotinia sclerotiorum) | growth of the pathogen (Phytophthora infestans) | growth of the pathogen [3] | growth of the pathogen (Venturia inaequalis) | growth of the pathogen (Corynespora cassiicola) | growth of the pathogen (fungal attack assessed as % diseased leaf area) (Botrytis cinerea [4])
1 | COCC1(C)CN=C(c2cnc(C(F)F)c(C)c2)c2ccccc2O1 (racemic) [Ex-52 and Ex-53 as racemat] | ≤ 9% | ≤ 19% | – | – | – | – | – | – | – | – | – | – | – | –
2 | Cc1cc(C2=NC(C)(C)C(C)(C)Oc3ccccc32)cnc1C [Ex-3] | ≤ 9% | ≤ 19% | – | – | – | – | – | – | – | – | – | – | – | –
3 | Cc1cc(C2=NC(C)(C)COc3ccccc32)cnc1C(F)F [Ex-6] | – | ≤ 19% | ≤ 1% | ≤ 12% | ≤ 19% | ≤ 19% | ≤ 20% | ≤ 20% | – | – | – | – | – | –
4 | COCC1(C)CN=C(c2cnc(C(F)F)c(C)c2)c2ccccc2O1 (centres unmarked) [Ex-7] | – | – | – | – | – | – | – | – | at most 15% | – | – | – | – | –
5 | COCC1(C)Oc2ccccc2C(c2cnc(C(F)F)c(C)c2)=NC1(C)C (centres unmarked) [Ex-10] | – | ≤ 19% | – | – | – | – | – | ≤ 20% | – | ≤ 19% | – | – | – | –
6 | Cc1cc(C2=NC(C)C(C)(C)Oc3ccccc32)cnc1C (centres unmarked) [Ex-11] | ≤ 9% | ≤ 19% | – | – | – | – | – | – | – | ≤ 19% | – | – | – | –
7 | Cc1cc(C2=NC(C(C)(C)C)C(C)Oc3ccccc32)cnc1C(F)F (centres unmarked) [Ex-15] | – | ≤ 19% | ≤ 1% | ≤ 12% | ≤ 19% | ≤ 19% | ≤ 20% | ≤ 20% | at most 15% | ≤ 19% | – | – | – | –
8 | Cc1cc(C2=NCC3(CCCC3)Oc3ccccc32)cnc1C [Ex-19] | – | ≤ 19% | ≤ 1% | ≤ 12% | ≤ 19% | ≤ 19% | – | – | – | – | ≤ 15% | – | – | –
9 | Cc1cc(C2=NC(C)(C)C3(CCC3)Oc3ccccc32)cnc1C(F)F [Ex-20] | – | ≤ 19% | ≤ 1% | ≤ 12% | ≤ 19% | ≤ 19% | ≤ 20% | ≤ 20% | at most 15% | ≤ 19% | – | – | – | –
10 | Cc1cc(C2=NCC3(CCC3)Oc3ccccc32)cnc1C(F)F [Ex-22] | – | ≤ 19% | ≤ 1% | ≤ 12% | ≤ 19% | ≤ 19% | ≤ 20% | ≤ 20% | at most 15% | – | ≤ 15% | ≤ 20% | – | –
11 | Cc1cc(C2=NC(C(C)(C)C)COc3ccccc32)cnc1C(F)F (centres unmarked) [Ex-23] | – | ≤ 19% | – | ≤ 12% | ≤ 19% | ≤ 19% | ≤ 20% | ≤ 20% | – | ≤ 19% | – | – | – | –
12 | Cc1cc(C2=NC(C(C)(C)C)C(C)Oc3ccccc32)cnc1C (centres unmarked) [Ex-24] | – | ≤ 19% | – | ≤ 12% | – | ≤ 19% | ≤ 20% | ≤ 20% | – | ≤ 19% | ≤ 15% | ≤ 20% | ≤ 16% | –
13 | Cc1cc(C2=NCC3(CC3)Oc3ccccc32)cnc1C(F)F [Ex-32] | – | ≤ 19% | ≤ 1% | ≤ 12% | ≤ 19% | ≤ 19% | ≤ 20% | ≤ 20% | at most 15% | – | ≤ 15% | – | ≤ 16% | –
14 | Cc1cc(C2=NC(C3CC3)COc3ccccc32)cnc1C(F)F (centres unmarked) [Ex-36] | – | ≤ 19% | ≤ 1% | ≤ 12% | ≤ 19% | ≤ 19% | ≤ 20% | ≤ 20% | – | – | ≤ 15% | ≤ 20% | ≤ 16% | –
15 | Cc1cc(C2=NC(=O)C(C)(C)Oc3c(Br)cccc32)cnc1C(F)F [Ex-37] | – | ≤ 19% | – | ≤ 12% | ≤ 19% | ≤ 19% | ≤ 20% | – | – | – | – | – | – | –
16 | Cc1cc(C2=NC(=O)C(C)(C)Oc3c(C)cccc32)cnc1C(F)F [Ex-39] | – | ≤ 19% | ≤ 1% | ≤ 12% | ≤ 19% | ≤ 19% | ≤ 20% | – | – | – | – | – | – | –
17 | Cc1cc(C2=NC(=O)C3(CC3)Oc3c(F)cccc32)cnc1C(F)F [Ex-41] | – | ≤ 19% | – | – | ≤ 19% | ≤ 19% | – | – | – | – | ≤ 15% | – | – | –
18 | Cc1cc(C2=NC(=O)C3(CCC3)Oc3c(F)cccc32)cnc1C(F)F [Ex-42] | – | ≤ 19% | – | ≤ 12% | ≤ 19% | – | – | – | – | – | – | – | – | –
19 | Cc1cc(C2=NC(=O)C(C)(C)Oc3c2ccc(F)c3F)cnc1C(F)F [Ex-43] | – | ≤ 19% | ≤ 1% | ≤ 12% | ≤ 19% | – | – | – | – | – | – | – | – | –
20 | CCC1(C)COc2ccccc2C(c2cnc(C(F)F)c(C)c2)=N1 (centres unmarked) [Ex-44] | – | ≤ 19% | – | ≤ 12% | ≤ 19% | ≤ 19% | ≤ 20% | ≤ 20% | – | – | – | ≤ 20% | ≤ 16% | –
21 | Cc1cc(C2=NC(=O)C3(CCCC3)Oc3c(F)cccc32)cnc1C(F)F [Ex-46] | ≤ 9% | – | ≤ 1% | ≤ 12% | ≤ 19% | ≤ 19% | – | – | – | – | – | – | – | –
22 | Cc1cc(C2=NC(C)C(C)(C)Oc3c(Cl)cccc32)cnc1C (centres unmarked) [Ex-49] | ≤ 9% | – | ≤ 1% | – | – | – | – | – | – | – | – | – | – | –
23 | Cc1cc(C2=N[C@H](C)C(C)(C)Oc3ccccc32)cnc1C(F)F [Ex-68] | – | ≤ 19% | ≤ 1% | ≤ 12% | ≤ 19% | ≤ 19% | – | ≤ 20% | – | – | – | – | – | –
24 | Cc1cc(C2=N[C@@H](C)C(C)(C)Oc3ccccc32)cnc1C(F)F [Ex-69] | – | ≤ 19% | ≤ 1% | ≤ 12% | ≤ 19% | ≤ 19% | – | ≤ 20% | – | – | ≤ 15% | – | ≤ 16% | at most 14%
